Experimental findings from US7989590B2 (Rohto Pharmaceutical Co., Ltd, priority 2005, dated 2011) are described below.

Strings that start with PEPTIDE1 are HELM notation: dots part the residues, brackets hold end groups and non-standard residues.

Data set [1] is described as follows: general procedure: Fmoc solid-phase peptide synthesis; 4-methylbenzhydrylamine resin. The settings on record: whole synthesis, reversed phase HPLC, absorbance at 220 nm.
The nature of data set [2]: general procedure: Fmoc solid-phase peptide synthesis; resin for solid-phase synthesis. The following applies: whole synthesis, 220 nm.

With PEPTIDE1{L.E.H.A.[am]}$$$$V2.0, in data set [1], the “final purity (method not given)” value is 94.0%. Regarding PEPTIDE1{L.E.H.A}$$$$V2.0, the “final HPLC purity” value in data set [2] is 99%.
